PubChem BioAssay AID652243 | Drosophila RNAi Screening Center, 2013
The deposit covers about 24,000 reagents; below is a random part of those that have a named target and a result. Of all reagents, 246 (1%) were called active. 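Plates not normalised; calls are printed but the firefly/Renilla ratio behind them is not deposited; fold cut for lowering reported inconsistently.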 Raw values vary from plate to plate and are shown uncorrected. Names joined by + are all predicted targets of the reagent. Not stated in the record: the amount of reagent.

Purpose: 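Knock-downs that decrease or increase androgen receptor reporter signal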 (primary screen)
System: Drosophila S2R+ cells
Knock-down reagent: long dsRNA against Drosophila genes
Duration: 72 h (48 h, then 24 h hormone)
Treatment: synthetic androgen R1881 at 10 nM for 24 h
Detection: 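Firefly light from an androgen-responsive reporter and Renilla control light per well, raw and unnormalised, for each of two replicates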
Scale: firefly reporter light: higher = more light from androgen-responsive reporter; Renilla control light: higher = more constitutive control signal (cell number, transfection)
Active means: 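Across duplicate plates, a knock-down whose log firefly/Renilla ratio shifted a set fold down or up from the GFP/LacZ control mean was a hit; the downward cut appears as both 1.5 and 3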
Meaning of the calls: active = hit: reporter lowered or raised; inactive = no hit

| gene | DRSC id | firefly reporter light, replicate 1 | firefly reporter light, replicate 2 | Renilla control light, replicate 1 | Renilla control light, replicate 2 | Call |
| --- | --- | --- | --- | --- | --- | --- |
| Mcm10 | DRSC03162 | 9.23e5 | 5.24e5 | 2.49e6 | 1.70e6 | inactive |
| Mcm10 | DRSC27996 | 5.19e5 | 4.58e5 | 1.61e6 | 1.40e6 | inactive |
| cold | DRSC00538 | 8.98e5 | 5.38e5 | 2.97e6 | 2.40e6 | inactive |
| nullo | DRSC18807 | 3.01e5 | 4.21e5 | 3.15e6 | 3.16e6 | inactive |
| nullo | DRSC29660 | 6.11e5 | 5.62e5 | 1.09e6 | 1.09e6 | inactive |
| CG17928 | DRSC02644 | 1.40e5 | 2.19e5 | 1.83e6 | 2.10e6 | inactive |
| CG31769 | DRSC01361 | 2.63e5 | 3.03e5 | 5.49e5 | 76962 | inactive |
| asRNA:CR31845 | DRSC23074 | 6.97e5 | 9.81e5 | 2.18e6 | 2.34e6 | inactive |
| hiro | DRSC08564 | 1.59e6 | 1.37e6 | 2.69e6 | 2.32e6 | inactive |
| hiro | DRSC29780 | 4.09e5 | 3.66e5 | 1.30e6 | 1.49e6 | inactive |
| CG4679 | DRSC06880 | 2.21e5 | 3.13e5 | 1.47e6 | 1.47e6 | inactive |
| CG4679 | DRSC28357 | 3.30e5 | 5.59e5 | 7.97e5 | 1.00e6 | inactive |
| Cpr73D | DRSC11084 | 16904 | 21760 | 2.55e5 | 2.23e5 | inactive |
| Cpr73D | DRSC26591 | 2.93e5 | 2.65e5 | 5.98e5 | 7.27e5 | inactive |
| CG14947 | DRSC02429 | 1.41e5 | 1.79e5 | 1.16e6 | 1.59e6 | inactive |
| Rca1 | DRSC03407 | 1.17e5 | 1.17e5 | 1.28e6 | 1.36e6 | inactive |
| CG13937 | DRSC08406 | 3.88e5 | 2.91e5 | 2.46e6 | 2.42e6 | inactive |
| e(r) | DRSC18768 | 1.16e5 | 1.33e5 | 9.99e5 | 1.11e6 | inactive |
| CG34244 | DRSC38842 | 1.03e6 | 9.38e5 | 2.54e6 | 2.00e6 | inactive |
| Dus1 | DRSC00623 | 1.20e5 | 1.14e5 | 6.97e5 | 6.71e5 | inactive |
| Parp16 | DRSC06597 | 75463 | 95719 | 1.89e6 | 1.89e6 | inactive |
| Parp16 | DRSC27048 | 3.71e5 | 2.29e5 | 8.37e5 | 7.29e5 | inactive |
| Decay | DRSC16930 | 1.72e5 | 1.63e5 | 2.19e6 | 2.35e6 | inactive |
| Cpr31A | DRSC02779 | 1.16e5 | 1.08e5 | 8.33e5 | 7.01e5 | inactive |
| Cpr31A | DRSC28742 | 3.70e5 | 3.77e5 | 9.66e5 | 1.12e6 | inactive |
| CG14883 | DRSC15007 | 2.50e5 | 2.61e5 | 2.74e6 | 2.69e6 | inactive |
| GluRIIE | DRSC13431 | 2.42e5 | 76972 | 2.14e5 | 73797 | inactive |
| GluRIIE | DRSC25745 | 6.69e5 | 6.08e5 | 8.64e5 | 8.75e5 | inactive |
| GluRIIE | DRSC39086 | 2.90e5 | 2.59e5 | 1.04e6 | 1.14e6 | inactive |
| CG14708 | DRSC14930 | 1.05e5 | 1.74e5 | 2.06e6 | 2.26e6 | inactive |
| CG14708 | DRSC25906 | 4.06e5 | 3.20e5 | 9.52e5 | 8.35e5 | inactive |
| CG6013 | DRSC15947 | 52586 | 63658 | 9.42e5 | 1.04e6 | active |
| CG6013 | DRSC29573 | 2.67e5 | 4.31e5 | 4.20e5 | 4.20e5 | inactive |
| lds | DRSC16988 | 73837 | 1.05e5 | 1.37e6 | 1.15e6 | inactive |
| PGRP-LB | DRSC14926 | 49346 | 83212 | 4.91e5 | 3.78e5 | inactive |
| ppk8 | DRSC17269 | 8.08e5 | 5.99e5 | 3.98e5 | 4.08e5 | inactive |

Copied from the listing for reference:
| gene | DRSC id | firefly reporter light, replicate 1 | firefly reporter light, replicate 2 | Renilla control light, replicate 1 | Renilla control light, replicate 2 | Call |
| --- | --- | --- | --- | --- | --- | --- |
| nullo | DRSC18807 | 3.01e5 | 4.21e5 | 3.15e6 | 3.16e6 | inactive |
| nullo | DRSC29660 | 6.11e5 | 5.62e5 | 1.09e6 | 1.09e6 | inactive |
| CG17928 | DRSC02644 | 1.40e5 | 2.19e5 | 1.83e6 | 2.10e6 | inactive |
| CG31769 | DRSC01361 | 2.63e5 | 3.03e5 | 5.49e5 | 76962 | inactive |
| asRNA:CR31845 | DRSC23074 | 6.97e5 | 9.81e5 | 2.18e6 | 2.34e6 | inactive |
| hiro | DRSC08564 | 1.59e6 | 1.37e6 | 2.69e6 | 2.32e6 | inactive |

The list goes on:
| gene | DRSC id | firefly reporter light, replicate 1 | firefly reporter light, replicate 2 | Renilla control light, replicate 1 | Renilla control light, replicate 2 | Call |
| --- | --- | --- | --- | --- | --- | --- |
| RSG7 | DRSC20274 | 6.21e5 | 4.37e5 | 4.90e6 | 3.60e6 | inactive |
| RSG7 | DRSC22852 | 4.05e5 | 8.36e5 | 1.03e6 | 1.52e6 | inactive |
| PolD1 | DRSC11138 | 1.22e5 | 1.31e5 | 2.07e6 | 2.21e6 | active |
| PolD1 | DRSC28966 | 4.66e5 | 4.67e5 | 1.09e6 | 9.54e5 | inactive |
| CG3652 | DRSC00624 | 1.52e5 | 1.28e5 | 1.06e6 | 1.05e6 | inactive |
| Samtor | DRSC04390 | 6.85e5 | 3.81e5 | 8.09e5 | 6.30e5 | inactive |
| Samtor | DRSC24231 | 8.19e5 | 8.62e5 | 1.13e6 | 1.40e6 | inactive |
| Nbr | DRSC03166 | 6.85e5 | 5.18e5 | 2.43e6 | 1.60e6 | inactive |
| Sse | DRSC09746 | 5.27e5 | 4.99e5 | 7.04e5 | 9.67e5 | inactive |
| CG13029 | DRSC09909 | 3.48e5 | 3.02e5 | 3.51e6 | 2.67e6 | inactive |
| CG32590 | DRSC19594 | 4.56e5 | 5.40e5 | 2.82e6 | 3.01e6 | inactive |
| Fkbp14 | DRSC04615 | 7.12e5 | 7.29e5 | 2.43e6 | 2.32e6 | inactive |
| CG10996 | DRSC19363 | 4.61e5 | 4.26e5 | 2.80e6 | 2.84e6 | inactive |
| Indy-2 + CG33934 | DRSC15685 | 1.09e5 | 78413 | 7.17e5 | 6.99e5 | inactive |
| Indy-2 + CG33934 | DRSC15686 | 3.36e5 | 3.32e5 | 2.60e6 | 2.94e6 | inactive |
| CG30022 | DRSC22405 | 3.90e5 | 1.18e6 | 8.43e5 | 2.34e6 | inactive |
| yem | DRSC14865 | 2.71e5 | 2.72e5 | 2.81e6 | 2.52e6 | inactive |
| yem | DRSC17097 | 2.39e5 | 1.91e5 | 1.57e6 | 1.98e6 | inactive |
| TBC1d7 | DRSC15985 | 1.46e5 | 1.96e5 | 2.05e6 | 2.37e6 | inactive |
| CG3104 | DRSC25569 | 6.20e5 | 4.79e5 | 7.86e5 | 8.94e5 | inactive |
| betaNACtes3 | DRSC20183 | 7.08e5 | 5.18e5 | 3.67e6 | 3.01e6 | inactive |
| CG9356 | DRSC16476 | 1.10e5 | 1.93e5 | 5.32e5 | 6.36e5 | inactive |
